Laboratory results: paper PMC12425391
No constants are given. Whether binding was seen depends on the method and setting. Binding seen in cells or lysates may run through a third protein. Some binding calls cover weakened binding; strength is not graded here. Each block holds one substance with its values, some of them ahead of it.

Sequences of proteins named here, by UniProt entry; tags and fusion partners are left off.
UniProt P42224: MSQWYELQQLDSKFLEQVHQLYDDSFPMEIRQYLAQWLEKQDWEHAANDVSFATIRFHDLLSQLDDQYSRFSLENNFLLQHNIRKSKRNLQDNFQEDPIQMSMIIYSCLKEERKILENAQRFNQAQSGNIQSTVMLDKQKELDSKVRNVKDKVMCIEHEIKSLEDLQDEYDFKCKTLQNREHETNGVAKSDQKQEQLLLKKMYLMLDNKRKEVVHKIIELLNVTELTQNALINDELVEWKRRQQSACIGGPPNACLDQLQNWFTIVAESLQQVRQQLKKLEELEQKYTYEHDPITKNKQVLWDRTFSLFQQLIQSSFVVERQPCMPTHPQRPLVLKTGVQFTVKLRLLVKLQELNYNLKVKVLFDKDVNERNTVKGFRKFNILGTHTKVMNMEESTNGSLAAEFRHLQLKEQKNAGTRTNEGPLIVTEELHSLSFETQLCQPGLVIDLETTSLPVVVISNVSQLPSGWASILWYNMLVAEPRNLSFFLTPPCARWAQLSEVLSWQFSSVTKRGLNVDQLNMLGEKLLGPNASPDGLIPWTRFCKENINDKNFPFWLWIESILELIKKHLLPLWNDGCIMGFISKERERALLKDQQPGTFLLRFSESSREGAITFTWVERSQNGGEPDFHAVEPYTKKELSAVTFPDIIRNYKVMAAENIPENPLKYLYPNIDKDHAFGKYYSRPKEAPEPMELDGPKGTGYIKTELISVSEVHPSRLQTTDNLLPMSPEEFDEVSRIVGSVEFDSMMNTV
UniProt O00471: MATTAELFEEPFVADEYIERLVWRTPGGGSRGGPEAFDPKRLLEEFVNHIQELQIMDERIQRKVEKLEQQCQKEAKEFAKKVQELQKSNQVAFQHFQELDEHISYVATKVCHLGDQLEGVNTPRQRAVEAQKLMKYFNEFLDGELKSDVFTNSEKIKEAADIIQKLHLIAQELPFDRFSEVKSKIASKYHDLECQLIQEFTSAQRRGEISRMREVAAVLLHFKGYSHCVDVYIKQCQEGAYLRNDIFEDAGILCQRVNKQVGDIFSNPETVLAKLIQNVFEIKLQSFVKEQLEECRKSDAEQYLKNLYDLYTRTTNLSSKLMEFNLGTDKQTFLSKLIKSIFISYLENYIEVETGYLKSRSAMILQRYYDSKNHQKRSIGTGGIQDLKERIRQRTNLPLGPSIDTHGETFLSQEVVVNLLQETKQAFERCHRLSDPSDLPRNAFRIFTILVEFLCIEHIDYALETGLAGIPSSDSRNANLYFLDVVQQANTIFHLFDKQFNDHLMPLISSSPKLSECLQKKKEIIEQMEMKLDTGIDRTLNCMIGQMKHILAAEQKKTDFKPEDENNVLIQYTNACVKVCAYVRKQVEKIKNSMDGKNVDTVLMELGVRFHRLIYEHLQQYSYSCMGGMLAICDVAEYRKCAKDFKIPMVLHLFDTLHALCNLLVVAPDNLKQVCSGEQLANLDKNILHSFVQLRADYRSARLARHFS
UniProt Q3TPX4: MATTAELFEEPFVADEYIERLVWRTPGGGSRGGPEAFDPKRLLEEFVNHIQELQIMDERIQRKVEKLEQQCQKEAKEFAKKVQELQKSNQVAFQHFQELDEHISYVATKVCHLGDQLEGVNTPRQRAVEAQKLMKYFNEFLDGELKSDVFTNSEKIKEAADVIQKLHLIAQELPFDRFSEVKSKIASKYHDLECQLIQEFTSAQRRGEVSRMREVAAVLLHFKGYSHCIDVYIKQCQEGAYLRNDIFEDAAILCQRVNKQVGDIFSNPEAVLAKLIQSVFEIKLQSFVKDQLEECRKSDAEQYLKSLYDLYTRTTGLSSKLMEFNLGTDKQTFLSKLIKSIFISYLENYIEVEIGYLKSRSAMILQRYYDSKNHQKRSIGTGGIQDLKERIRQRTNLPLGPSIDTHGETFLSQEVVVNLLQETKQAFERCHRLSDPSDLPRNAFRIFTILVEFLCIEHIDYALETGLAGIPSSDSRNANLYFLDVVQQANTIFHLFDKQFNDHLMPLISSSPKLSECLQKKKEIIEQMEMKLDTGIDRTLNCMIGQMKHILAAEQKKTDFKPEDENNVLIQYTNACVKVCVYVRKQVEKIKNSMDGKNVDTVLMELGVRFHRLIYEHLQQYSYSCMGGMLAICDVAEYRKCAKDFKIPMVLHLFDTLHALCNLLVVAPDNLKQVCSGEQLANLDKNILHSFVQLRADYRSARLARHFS
UniProt Q9UNE7: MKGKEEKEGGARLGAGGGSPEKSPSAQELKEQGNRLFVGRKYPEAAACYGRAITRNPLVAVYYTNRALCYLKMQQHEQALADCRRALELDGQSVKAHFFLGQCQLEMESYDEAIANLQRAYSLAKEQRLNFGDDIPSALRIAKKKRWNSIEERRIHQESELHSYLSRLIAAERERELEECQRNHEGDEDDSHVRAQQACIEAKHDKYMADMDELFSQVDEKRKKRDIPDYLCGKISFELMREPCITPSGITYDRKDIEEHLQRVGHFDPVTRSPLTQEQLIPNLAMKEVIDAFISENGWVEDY
UniProt Q9WUD1: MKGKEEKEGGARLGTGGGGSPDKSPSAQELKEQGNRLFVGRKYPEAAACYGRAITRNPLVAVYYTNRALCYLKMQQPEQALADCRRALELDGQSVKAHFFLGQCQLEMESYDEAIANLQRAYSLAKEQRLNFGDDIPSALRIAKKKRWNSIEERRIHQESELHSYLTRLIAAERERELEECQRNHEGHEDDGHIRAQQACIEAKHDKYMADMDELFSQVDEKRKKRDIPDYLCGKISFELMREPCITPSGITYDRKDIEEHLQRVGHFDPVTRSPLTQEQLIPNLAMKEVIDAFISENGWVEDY

Key:
[1] = molecular target: endogenous STAT1 (HeLa) (human (endogenous in HeLa)) (UniProt P42224); assay: co-IP
HA-tagged STAT1 = HA-tagged STAT1 (UniProt P42224); assay: co-IP; HEK293T cells co-transfected with the tagged plasmids, whole-cell extracts 48 h after transfection; IP with anti-HA or anti-Flag antibody on Protein G Sepharose beads at 4°C, washed 3x with lysis buffer; immunoblot
HA-tagged Sec10 = HA-tagged Sec10 (UniProt O00471); assay: as above
[2] = molecular target: T1, endogenous STAT1 (mouse PMs or BMDMs) (mouse (endogenous in PMs or BMDMs)) (UniProt P42225); assay: co-IP
T1 sequence: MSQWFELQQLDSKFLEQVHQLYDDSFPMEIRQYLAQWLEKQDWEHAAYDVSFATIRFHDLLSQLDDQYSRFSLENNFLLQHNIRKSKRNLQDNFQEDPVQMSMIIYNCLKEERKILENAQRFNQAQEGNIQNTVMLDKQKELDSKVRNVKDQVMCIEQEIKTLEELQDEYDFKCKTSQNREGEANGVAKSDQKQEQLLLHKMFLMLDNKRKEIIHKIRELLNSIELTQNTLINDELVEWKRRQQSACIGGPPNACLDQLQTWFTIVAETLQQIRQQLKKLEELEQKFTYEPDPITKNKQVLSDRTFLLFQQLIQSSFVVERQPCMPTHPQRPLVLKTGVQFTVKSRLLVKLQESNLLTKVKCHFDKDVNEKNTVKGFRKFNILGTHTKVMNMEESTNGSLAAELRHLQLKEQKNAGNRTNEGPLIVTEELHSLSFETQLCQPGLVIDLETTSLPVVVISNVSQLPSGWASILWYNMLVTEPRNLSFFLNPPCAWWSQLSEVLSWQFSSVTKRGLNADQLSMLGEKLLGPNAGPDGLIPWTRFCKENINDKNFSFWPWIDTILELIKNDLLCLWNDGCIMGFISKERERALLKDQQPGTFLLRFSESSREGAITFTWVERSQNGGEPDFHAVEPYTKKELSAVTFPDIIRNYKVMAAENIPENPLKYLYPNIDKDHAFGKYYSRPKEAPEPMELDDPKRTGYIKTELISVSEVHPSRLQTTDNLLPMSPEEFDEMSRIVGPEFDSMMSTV

[3] = molecular target: endogenous Sec10 (mouse PMs or BMDMs) (mouse (endogenous in PMs or BMDMs)) (UniProt Q3TPX4); assay: co-IP
Flag-tagged STAT1 = Flag-tagged STAT1 (UniProt P42224); assay: co-IP; HEK293T cells co-transfected with the tagged plasmids, whole-cell extracts 48 h after transfection; IP with anti-HA or anti-Flag antibody on Protein G Sepharose beads at 4°C, washed 3x with lysis buffer; immunoblot
Flag-tagged STUB1 = Flag-tagged STUB1 (UniProt Q9UNE7); assay: as above

binding [1]: binds
Substance: endogenous STUB1 (HeLa) (from UniProt Q9UNE7 1-303) (enzyme)

binding (HA-tagged STAT1): binds | binding (HA-tagged Sec10): binds
Substance: Flag-tagged STUB1 (from UniProt Q9UNE7 1-303) (enzyme)

binding [2]: binds | binding [3]: binds
Substance: endogenous STUB1 (mouse PMs or BMDMs) (from UniProt Q9WUD1 1-304) (enzyme)

binding (Flag-tagged STAT1): binds | binding (Flag-tagged STUB1): binds
Substance: HA-tagged Sec10 (from UniProt O00471 1-708)
